## Results from one PubChem assay

Data taken from PubChem BioAssay AID1159506, deposited by NCATS (2015).

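Luminescence from an EWS-FLI1 target-promoter (NR0B1) reporter, set against a CMV-promoter reporter, two days after silencing single genes in TC32 Ewing sarcoma cells. Each siRNA was applied at 20 nM. A z-score of the log NR0B1-over-CMV signal, less the median of siRNAs with the same seed; more negative means a stronger specific loss of the NR0B1 reporter.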

The strongest results of the screen are mostly left out here. Sequences are the guide (antisense) strand, without overhang.

{"strand": "UAAUCUUGAUGUUCUUUCC", "gene": "PKM", "seed-corrected z-score": "0.4494"}
{"strand": "UUCUGAUUUUAGGAUGUCC", "gene": "ZNF7", "seed-corrected z-score": "-0.6152"}
{"strand": "UUUAGUAUCUCCUCAAUGU", "gene": "TMOD4", "seed-corrected z-score": "-0.1459"}
{"strand": "UUGUGGUAGAUGUUACUUG", "gene": "PRG4", "seed-corrected z-score": "-0.7045"}
{"strand": "UGGUUGCACAGACAGUACG", "gene": "ING1", "seed-corrected z-score": "-0.2162"}
{"strand": "UCUCAGUUAGGUUUCUGUC", "gene": "MURC", "seed-corrected z-score": "-0.3181"}
{"strand": "UAGUGGUUCACGAGGUGCU", "gene": "KCTD7", "seed-corrected z-score": "-0.6544"}
{"strand": "UAGUUGUUGUGAUAGAUGC", "gene": "MCM2", "seed-corrected z-score": "0.2159"}
{"strand": "UCCGAUAAUACUACUUGUC", "gene": "NME8", "seed-corrected z-score": "-0.1456"}
{"strand": "AAAUUAUCUCUAUCAAUGC", "gene": "AZI2", "seed-corrected z-score": "2.325"}
{"strand": "UCUGUAAUGAUCCUAUUUC", "gene": "TNFAIP8L1", "seed-corrected z-score": "1.1"}
{"strand": "UUCCCUAUAAUGGUCAGGC", "gene": "OR11L1", "seed-corrected z-score": "0.05223"}
{"strand": "UCCUGUUUGACUAGCACCG", "gene": "PFDN6", "seed-corrected z-score": "1.885"}
{"strand": "UUUGUCACACCAGCGACUG", "gene": "DDX3X", "seed-corrected z-score": "-0.6429"}
{"strand": "UCUGGUACAACCACAGAUG", "gene": "EXT2", "seed-corrected z-score": "0.8932"}
{"strand": "UUUUCUACCGUUUUGGUCA", "gene": "NEFM", "seed-corrected z-score": "0.6926"}
{"strand": "UAUGGUGUGAGGCAUGGUG", "gene": "PEX2", "seed-corrected z-score": "0.09437"}
{"strand": "AAUGACAGAAUUCUUCUCC", "gene": "C3orf38", "seed-corrected z-score": "-0.1749"}
{"strand": "UAGUAGAUAAGUUAGAUAC", "gene": "HTR5A", "seed-corrected z-score": "-0.3227"}
{"strand": "UAAGUUCUUAUCCUUAGGG", "gene": "EMC9", "seed-corrected z-score": "-0.271"}
{"strand": "UGAGCUGAGACACUGGAGC", "gene": "CD79A", "seed-corrected z-score": "-1.36"}
{"strand": "UUAAUUUCCAGGCACAUGA", "gene": "AIRE", "seed-corrected z-score": "1.154"}
{"strand": "UUGACUUCCACGUUUAUGA", "gene": "RFPL4AL1", "seed-corrected z-score": "-0.3089"}
{"strand": "AAUAGGAUCCUUCAAAGUC", "gene": "VPS13B", "seed-corrected z-score": "-0.1298"}
{"strand": "UUUCCCGUAAUCAUGAUGC", "gene": "SPO11", "seed-corrected z-score": "0.2654"}
{"strand": "UGUUGAUUCAGGGUAGGUG", "gene": "MUC16", "seed-corrected z-score": "0.026"}
{"strand": "UUGGUCUUCACGCAGUACU", "gene": "CDC34", "seed-corrected z-score": "-0.1165"}
{"strand": "UUCGGAAUGUUGGAGAUAC", "gene": "LMNTD1", "seed-corrected z-score": "0.5087"}
{"strand": "UCCGUAAUAUGAGAAGAAG", "gene": "PLA2G2C", "seed-corrected z-score": "-0.1543"}
{"strand": "UCCUCUAUAGCCGUGUCCG", "gene": "NUBP1", "seed-corrected z-score": "-0.6495"}
{"strand": "UCAGGGUUCGUUCAUAUGU", "gene": "GEM", "seed-corrected z-score": "-0.4567"}
{"strand": "AAACUUCUCUGUGAGCGUG", "gene": "MEGF6", "seed-corrected z-score": "-0.195"}
{"strand": "UCUGUAGCUCUUUAGAUGC", "gene": "ZNF584", "seed-corrected z-score": "0.3653"}
{"strand": "AGAGCUAUAGCUUUGAGGG", "gene": "ESRRG", "seed-corrected z-score": "0.1888"}
{"strand": "UUUCAAAGUAGUGGGAGGC", "gene": "IL2RB", "seed-corrected z-score": "-0.3984"}
{"strand": "UCUCCAAUCACACCUGUGG", "gene": "TRMT13", "seed-corrected z-score": "0.7301"}
{"strand": "UGUCUUUCAGCUCAAAGCC", "gene": "UBAP1", "seed-corrected z-score": "-0.9369"}
{"strand": "UUCUCAAUGACCUUCAUUU", "gene": "ANKRD2", "seed-corrected z-score": "0.1071"}
{"strand": "UAUAGUUAUCUAUCCUUAG", "gene": "DBF4P1", "seed-corrected z-score": "0.8046"}
{"strand": "AUAGUGCCGUUUAUUGUUC", "gene": "ZNF787", "seed-corrected z-score": "-0.9079"}
{"strand": "UUUGUUGAUAGCAUAGUUG", "gene": "TTLL13P", "seed-corrected z-score": "-0.7958"}
{"strand": "UUUAUUAUCCUCAAAAUGU", "gene": "PRR7", "seed-corrected z-score": "0.1542"}
{"strand": "UAGGUUUUCGACUUGAGUG", "gene": "RHNO1", "seed-corrected z-score": "0.2247"}
{"strand": "UUCGUGAUCCACUAAGUAC", "gene": "FBLN7", "seed-corrected z-score": "-0.326"}
{"strand": "AACUUGUGCAGCGGGAUCC", "gene": "CTSD", "seed-corrected z-score": "-0.7725"}
{"strand": "UGUUUCAGCACCUUCGUCU", "gene": "AP2S1", "seed-corrected z-score": "-0.233"}
{"strand": "UCGCUCAUAGGAUCUGUUC", "gene": "CPQ", "seed-corrected z-score": "0.1776"}
{"strand": "UGUCAAAACAAGCUAGUUC", "gene": "KLF15", "seed-corrected z-score": "0.1669"}
{"strand": "UUUGGGAAAGCUGACCGGC", "gene": "LOC391742", "seed-corrected z-score": "-0.7084"}
{"strand": "UUUCCUCACAGUCUCUUUG", "gene": "MAN2C1", "seed-corrected z-score": "-0.2911"}
{"strand": "ACCCUUAAAAUAUCCAUGC", "gene": "NELL2", "seed-corrected z-score": "0.122"}
{"strand": "AAAGUUCCUUCCAAUAAGC", "gene": "NDEL1", "seed-corrected z-score": "1.625"}
{"strand": "ACUGGAAAGAGCCUCCUCG", "gene": "CCHCR1", "seed-corrected z-score": "0.07592"}
{"strand": "UACGAUAUUAGUCGACAUC", "gene": "OR5M11", "seed-corrected z-score": "0.8337"}

For reference, 3 entries once more:

Result for UUCGGAAUGUUGGAGAUAC against LMNTD1 was seed-corrected z-score 0.5087.
Result for AAUAGGAUCCUUCAAAGUC against VPS13B was seed-corrected z-score -0.1298.
Result for AAUGACAGAAUUCUUCUCC against C3orf38 was seed-corrected z-score -0.1749.